# Assay results reported in the supplement of paper PMC10849652.
# The chains behind the UniProt entries cited, without tags or fusion partners. Where a name states a change or a piece, a line headed by the entry shows the natural chain unless it says otherwise.
# UniProt O94888: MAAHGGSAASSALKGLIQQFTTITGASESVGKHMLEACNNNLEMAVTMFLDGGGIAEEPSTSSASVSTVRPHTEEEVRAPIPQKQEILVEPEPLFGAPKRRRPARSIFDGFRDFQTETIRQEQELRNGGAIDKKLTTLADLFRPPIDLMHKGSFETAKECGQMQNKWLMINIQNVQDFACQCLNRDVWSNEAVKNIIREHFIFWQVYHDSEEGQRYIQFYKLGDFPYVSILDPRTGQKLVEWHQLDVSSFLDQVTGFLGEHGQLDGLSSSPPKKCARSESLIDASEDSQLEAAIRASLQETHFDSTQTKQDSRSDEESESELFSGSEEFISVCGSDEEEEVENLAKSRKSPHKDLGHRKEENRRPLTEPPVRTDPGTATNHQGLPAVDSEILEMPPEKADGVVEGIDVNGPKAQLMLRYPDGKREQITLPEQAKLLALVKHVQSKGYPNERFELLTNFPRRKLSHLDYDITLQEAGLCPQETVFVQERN
# UniProt Q8TCY9: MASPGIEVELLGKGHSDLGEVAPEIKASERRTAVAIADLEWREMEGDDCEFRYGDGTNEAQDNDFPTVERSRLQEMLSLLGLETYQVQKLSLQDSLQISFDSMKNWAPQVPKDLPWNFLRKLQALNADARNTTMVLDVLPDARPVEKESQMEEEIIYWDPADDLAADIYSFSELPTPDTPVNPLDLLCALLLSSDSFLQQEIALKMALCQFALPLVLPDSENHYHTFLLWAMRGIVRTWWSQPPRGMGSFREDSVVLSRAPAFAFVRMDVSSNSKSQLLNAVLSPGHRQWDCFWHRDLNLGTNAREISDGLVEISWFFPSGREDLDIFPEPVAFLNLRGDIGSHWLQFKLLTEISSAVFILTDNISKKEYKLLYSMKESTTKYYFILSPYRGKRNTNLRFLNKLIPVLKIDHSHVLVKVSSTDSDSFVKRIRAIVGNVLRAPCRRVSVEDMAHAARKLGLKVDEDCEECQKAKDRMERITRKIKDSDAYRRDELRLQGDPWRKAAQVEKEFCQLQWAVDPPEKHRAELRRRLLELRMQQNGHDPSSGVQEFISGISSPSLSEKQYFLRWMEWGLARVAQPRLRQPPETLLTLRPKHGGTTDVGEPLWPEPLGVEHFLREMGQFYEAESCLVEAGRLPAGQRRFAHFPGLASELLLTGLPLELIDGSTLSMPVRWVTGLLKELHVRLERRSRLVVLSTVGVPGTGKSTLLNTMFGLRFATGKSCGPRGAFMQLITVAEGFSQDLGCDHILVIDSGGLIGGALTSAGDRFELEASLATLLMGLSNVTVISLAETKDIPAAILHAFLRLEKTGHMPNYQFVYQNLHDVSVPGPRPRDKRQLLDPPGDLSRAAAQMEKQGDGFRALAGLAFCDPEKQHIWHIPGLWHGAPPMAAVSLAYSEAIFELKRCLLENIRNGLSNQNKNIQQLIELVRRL
# UniProt Q92575: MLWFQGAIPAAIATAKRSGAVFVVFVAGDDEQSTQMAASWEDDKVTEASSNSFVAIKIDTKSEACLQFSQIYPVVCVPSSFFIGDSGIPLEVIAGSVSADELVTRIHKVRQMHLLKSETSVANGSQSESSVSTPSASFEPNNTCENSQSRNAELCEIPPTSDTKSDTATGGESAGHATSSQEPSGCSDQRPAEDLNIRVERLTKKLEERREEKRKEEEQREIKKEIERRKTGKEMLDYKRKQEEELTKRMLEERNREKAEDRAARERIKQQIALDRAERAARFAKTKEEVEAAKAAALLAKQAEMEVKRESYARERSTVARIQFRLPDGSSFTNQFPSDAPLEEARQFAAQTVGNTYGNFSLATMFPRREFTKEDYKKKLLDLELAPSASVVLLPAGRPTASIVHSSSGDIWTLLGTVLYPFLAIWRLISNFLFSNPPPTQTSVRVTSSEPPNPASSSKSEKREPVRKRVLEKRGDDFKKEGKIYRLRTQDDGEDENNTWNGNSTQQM
# UniProt Q16851: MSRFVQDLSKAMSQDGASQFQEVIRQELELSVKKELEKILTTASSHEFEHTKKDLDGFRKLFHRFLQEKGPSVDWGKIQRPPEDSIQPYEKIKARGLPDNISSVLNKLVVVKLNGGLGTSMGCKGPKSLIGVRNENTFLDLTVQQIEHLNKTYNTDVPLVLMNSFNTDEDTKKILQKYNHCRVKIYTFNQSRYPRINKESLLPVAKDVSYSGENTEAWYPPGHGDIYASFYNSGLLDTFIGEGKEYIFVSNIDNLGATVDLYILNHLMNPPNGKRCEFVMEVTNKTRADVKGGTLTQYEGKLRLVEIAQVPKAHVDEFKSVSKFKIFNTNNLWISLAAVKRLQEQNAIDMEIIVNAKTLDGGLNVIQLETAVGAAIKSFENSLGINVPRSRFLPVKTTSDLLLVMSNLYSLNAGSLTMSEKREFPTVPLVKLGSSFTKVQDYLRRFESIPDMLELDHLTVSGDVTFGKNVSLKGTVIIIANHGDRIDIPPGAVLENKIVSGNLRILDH
# UniProt O75379: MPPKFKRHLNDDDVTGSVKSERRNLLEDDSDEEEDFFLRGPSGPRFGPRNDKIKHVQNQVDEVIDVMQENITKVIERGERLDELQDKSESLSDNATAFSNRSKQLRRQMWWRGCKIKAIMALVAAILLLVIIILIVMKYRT
# UniProt Q9P2Y5: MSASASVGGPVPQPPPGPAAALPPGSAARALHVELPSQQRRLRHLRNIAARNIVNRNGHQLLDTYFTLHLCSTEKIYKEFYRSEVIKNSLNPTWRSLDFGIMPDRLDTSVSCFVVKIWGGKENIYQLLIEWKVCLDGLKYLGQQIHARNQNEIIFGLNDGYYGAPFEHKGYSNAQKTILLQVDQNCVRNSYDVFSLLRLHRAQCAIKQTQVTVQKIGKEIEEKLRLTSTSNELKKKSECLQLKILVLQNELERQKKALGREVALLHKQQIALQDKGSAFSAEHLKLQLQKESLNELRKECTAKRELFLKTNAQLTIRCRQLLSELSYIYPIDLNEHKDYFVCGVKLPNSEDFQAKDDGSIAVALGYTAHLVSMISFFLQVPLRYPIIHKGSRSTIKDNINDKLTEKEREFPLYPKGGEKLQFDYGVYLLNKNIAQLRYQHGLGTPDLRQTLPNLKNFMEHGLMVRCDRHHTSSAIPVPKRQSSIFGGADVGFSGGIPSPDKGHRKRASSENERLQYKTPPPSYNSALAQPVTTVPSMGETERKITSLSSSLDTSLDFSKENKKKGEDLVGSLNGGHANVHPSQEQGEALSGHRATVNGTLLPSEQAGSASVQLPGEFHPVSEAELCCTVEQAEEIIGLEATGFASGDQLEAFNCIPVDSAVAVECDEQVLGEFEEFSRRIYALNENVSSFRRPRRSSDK
# UniProt P14927: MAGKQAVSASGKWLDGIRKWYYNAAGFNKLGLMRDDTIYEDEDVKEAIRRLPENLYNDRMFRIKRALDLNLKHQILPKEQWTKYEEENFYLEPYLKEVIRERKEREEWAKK
# UniProt P18206: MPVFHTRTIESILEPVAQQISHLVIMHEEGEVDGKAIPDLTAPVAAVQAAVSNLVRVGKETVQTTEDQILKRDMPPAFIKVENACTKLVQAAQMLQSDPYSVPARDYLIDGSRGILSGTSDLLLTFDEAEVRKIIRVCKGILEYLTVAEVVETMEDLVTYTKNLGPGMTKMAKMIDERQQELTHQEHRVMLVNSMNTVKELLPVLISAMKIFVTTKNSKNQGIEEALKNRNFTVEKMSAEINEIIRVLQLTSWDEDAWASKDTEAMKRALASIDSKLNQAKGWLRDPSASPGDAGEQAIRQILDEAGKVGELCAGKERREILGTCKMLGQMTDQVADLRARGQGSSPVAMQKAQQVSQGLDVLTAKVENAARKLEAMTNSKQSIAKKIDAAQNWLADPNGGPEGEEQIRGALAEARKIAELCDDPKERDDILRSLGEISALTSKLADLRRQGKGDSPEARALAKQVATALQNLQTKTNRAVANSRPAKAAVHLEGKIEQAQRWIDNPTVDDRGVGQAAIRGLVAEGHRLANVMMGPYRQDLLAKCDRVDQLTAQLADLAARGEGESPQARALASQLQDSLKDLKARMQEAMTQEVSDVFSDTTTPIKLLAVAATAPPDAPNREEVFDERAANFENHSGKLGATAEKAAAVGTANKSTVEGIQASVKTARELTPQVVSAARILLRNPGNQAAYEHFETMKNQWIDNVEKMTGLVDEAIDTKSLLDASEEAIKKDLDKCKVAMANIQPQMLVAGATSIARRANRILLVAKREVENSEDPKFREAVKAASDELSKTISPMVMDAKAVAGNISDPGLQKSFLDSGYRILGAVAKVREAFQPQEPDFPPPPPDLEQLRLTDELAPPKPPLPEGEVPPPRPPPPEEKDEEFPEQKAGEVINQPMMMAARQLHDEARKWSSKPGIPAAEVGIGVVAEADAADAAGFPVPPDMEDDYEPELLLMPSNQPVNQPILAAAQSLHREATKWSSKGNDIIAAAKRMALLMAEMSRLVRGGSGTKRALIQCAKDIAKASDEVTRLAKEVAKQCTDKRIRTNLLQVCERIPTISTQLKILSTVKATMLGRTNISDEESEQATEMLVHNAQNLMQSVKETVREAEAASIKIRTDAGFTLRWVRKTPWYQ
# UniProt Q96RL1: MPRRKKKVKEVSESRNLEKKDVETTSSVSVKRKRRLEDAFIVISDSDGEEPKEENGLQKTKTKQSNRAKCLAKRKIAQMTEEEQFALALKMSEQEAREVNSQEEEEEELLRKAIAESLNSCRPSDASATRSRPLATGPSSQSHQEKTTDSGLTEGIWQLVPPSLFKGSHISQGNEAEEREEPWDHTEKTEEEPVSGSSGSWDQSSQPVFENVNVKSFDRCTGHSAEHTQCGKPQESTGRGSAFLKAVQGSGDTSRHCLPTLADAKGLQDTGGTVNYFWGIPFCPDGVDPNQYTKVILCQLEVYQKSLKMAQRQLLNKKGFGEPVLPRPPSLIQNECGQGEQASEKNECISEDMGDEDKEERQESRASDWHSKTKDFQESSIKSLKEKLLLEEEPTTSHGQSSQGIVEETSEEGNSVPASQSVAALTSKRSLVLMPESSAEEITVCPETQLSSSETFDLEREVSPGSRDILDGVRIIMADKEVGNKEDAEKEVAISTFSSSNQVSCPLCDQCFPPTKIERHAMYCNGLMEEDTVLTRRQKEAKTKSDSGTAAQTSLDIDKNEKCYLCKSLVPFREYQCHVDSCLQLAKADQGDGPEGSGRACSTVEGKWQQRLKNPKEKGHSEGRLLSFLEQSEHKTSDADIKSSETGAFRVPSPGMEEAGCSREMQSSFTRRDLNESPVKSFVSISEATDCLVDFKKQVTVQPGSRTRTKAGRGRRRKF
# UniProt P45974: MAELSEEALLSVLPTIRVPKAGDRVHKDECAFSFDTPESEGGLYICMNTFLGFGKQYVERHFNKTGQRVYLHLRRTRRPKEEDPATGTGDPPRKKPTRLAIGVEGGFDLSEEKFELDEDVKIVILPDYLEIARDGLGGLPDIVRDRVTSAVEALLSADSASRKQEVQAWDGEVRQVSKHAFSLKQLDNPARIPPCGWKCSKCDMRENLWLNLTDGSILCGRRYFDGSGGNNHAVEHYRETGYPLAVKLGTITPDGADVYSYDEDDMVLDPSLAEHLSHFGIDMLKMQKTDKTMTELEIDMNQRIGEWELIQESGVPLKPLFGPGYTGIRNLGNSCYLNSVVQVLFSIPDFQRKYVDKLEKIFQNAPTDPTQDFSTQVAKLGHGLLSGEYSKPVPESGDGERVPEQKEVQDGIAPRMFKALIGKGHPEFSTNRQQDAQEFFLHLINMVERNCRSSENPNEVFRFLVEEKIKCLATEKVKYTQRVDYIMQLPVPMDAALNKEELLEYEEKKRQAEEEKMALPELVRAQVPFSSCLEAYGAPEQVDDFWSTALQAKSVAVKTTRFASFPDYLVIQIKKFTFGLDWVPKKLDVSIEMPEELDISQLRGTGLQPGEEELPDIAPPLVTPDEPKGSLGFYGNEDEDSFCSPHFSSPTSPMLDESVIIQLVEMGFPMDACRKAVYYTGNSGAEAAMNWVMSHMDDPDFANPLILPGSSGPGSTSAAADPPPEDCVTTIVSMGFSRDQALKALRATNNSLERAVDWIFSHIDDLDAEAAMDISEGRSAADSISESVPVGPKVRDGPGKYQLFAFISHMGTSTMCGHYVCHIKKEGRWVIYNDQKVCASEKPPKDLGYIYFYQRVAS
# UniProt Q99536: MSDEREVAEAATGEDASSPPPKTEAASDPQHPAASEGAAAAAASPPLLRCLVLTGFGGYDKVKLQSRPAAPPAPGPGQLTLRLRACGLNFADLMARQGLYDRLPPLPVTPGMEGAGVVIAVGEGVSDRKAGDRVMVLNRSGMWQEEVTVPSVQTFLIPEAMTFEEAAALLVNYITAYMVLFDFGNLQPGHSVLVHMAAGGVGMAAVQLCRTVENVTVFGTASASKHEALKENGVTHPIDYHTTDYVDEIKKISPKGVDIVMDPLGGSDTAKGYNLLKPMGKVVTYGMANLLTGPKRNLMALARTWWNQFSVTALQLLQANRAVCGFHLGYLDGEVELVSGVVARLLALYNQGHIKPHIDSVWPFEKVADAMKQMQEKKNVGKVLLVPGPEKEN
# UniProt Q9BZL1: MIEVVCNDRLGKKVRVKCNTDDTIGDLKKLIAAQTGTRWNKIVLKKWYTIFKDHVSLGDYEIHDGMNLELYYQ
# The other results are listed elsewhere or left out.
# Compound: Cc1ccc(-n2nc(C(C)(C)C)cc2NC(=O)Nc2ccc(OCCN3CCOCC3)c3ccccc23)cc1 [doramapimod]
# Assay: log2 fold change, soluble protein after heating vs DMSO (PISA); higher = thermal stabilisation; K562 cells, 10 uM, 30 min; active = over 0.2 and 3.5 SD of the protein, either way, in both replicates (recomputed)
# In short: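 Quantification of soluble protein used TMTpro 16plex LC-MS/MS, with channel sums equalised. Samples were the supernatant after 21,000xg for 90 min of pooled aliquots from K562 cells (2×10^6 cells/mL) treated with 10 μM compound for 30 min, heated for 3 min over 48°C-58°C, and extracted in PBS with 0.5% NP-40 at 4°C. Values, from duplicates, describe thermal stability against control samples on a log2 fold-change scale.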
row,Target,log2 fold change
1,UBXN7 (UniProt O94888),inactive: -0.011
2,URGCP (UniProt Q8TCY9),inactive: 0.012
3,UBXN4 (UniProt Q92575),inactive: 0.02
4,VANGL1 (UniProt Q8TAA9),inactive: 0.043
5,UCK1 (UniProt Q9HA47),inactive: -0.001
6,UGP2 (UniProt Q16851),inactive: -0.024
7,UQCRC1 (UniProt P31930),inactive: -0.01
8,VAPA isoform 2 (UniProt Q9P0L0),inactive: -0.021
9,UBQLN4 (UniProt Q9NRR5),inactive: 0.01
10,VAMP4 (UniProt O75379),inactive: 0.059
11,VAPB (UniProt O95292),inactive: 0.01
12,UVRAG (UniProt Q9P2Y5),inactive: 0.014
13,UQCRB (UniProt P14927),inactive: -0.041
14,VCL (UniProt P18206),inactive: -0.02
15,UIMC1 (UniProt Q96RL1),inactive: 0.047
16,UBR5 (UniProt O95071),inactive: 0.036
17,USP5 (UniProt P45974),inactive: -0.035
18,UQCRFS1 (UniProt P47985),inactive: -0.058
19,UMPS (UniProt P11172),inactive: -0.048
20,UQCRC2 (UniProt P22695),inactive: -0.04
21,UBQLN2 (UniProt Q9UHD9),inactive: 0.003
22,UQCC1 (UniProt Q9NVA1),inactive: 0.023
23,VAT1 (UniProt Q99536),inactive: -0.062
24,UBL5 (UniProt Q9BZL1),inactive: 0.025

# Shown with tabs: entries from further up
row	Target	log2 fold change
18	UQCRFS1 (UniProt P47985)	inactive: -0.058
24	UBL5 (UniProt Q9BZL1)	inactive: 0.025
